Values joined by “and” are separate entries in the source; they are usually repeats but may differ in a detail not shown here. Equal entries are not always repeated. Where two headings read alike, the source gives them in different places. Some entries repeat one wording, which the source may state once for all of them. Where a SMILES comes first, the peptide text is derived from it. Where no end group is shown, it is not given here. [ ]: non-standard residue; d: D form. The star is where a group is joined. X1 = CC/C=C\C/C=C\C/C=C\C/C=C\C/C=C\CCCC(=O)*; Fmoc = O=C(OCC1c2ccccc2-c2ccccc21)*; Palmitoyl = CCCCCCCCCCCCCCCC(=O)*; Nonanoyl = CCCCCCCCC(=O)*
Tested on: HeLa cells
Assay: Confocal laser scanning microscopy and degradation study with PA library and HeLa cells
Assay type: cell-based
Settings: for Aggregate size after 30 min incubation (d0) / Aggregate size after 3 d incubation (d3): aggregates > 10 µm^2, HeLa cell culture
Experimental: In general, the procedure for determine whether a PA is degraded or not, is conducted by confocal laser scanning microscopy of Proteostat stained PAs which are added to Hela cells (2 µg peptide added to 20.000 cells). Microscopy is conducted at day 0 (d0, after 30 min of incubation) and at day 3 (d3, after 72 h of incubation). The number of aggregates >10 µm^2 is counted via 3D object counter in imaged in an area of 1008 µm × 1008 µm.
A PA is considered to be degradable if the number and the size of aggregates are reduced after 3 days. The efficiency is determined by the percentual degradation (aggregate number at d3 / aggregate number at d0). For the number of aggregation three technical replicates were evaluated for each sample. A large deviation represents a nonhomogeneous spatial distribution of aggregates.
Confocal laser scanning microscopy and degradation study with PA library and HeLa cells: Confocal laser scanning microscopy studies were performed for the visualization of the cell-PA interaction. HeLa cells were seeded one day prior to conducting the assay (20,000/well) in an 8-well IBIDI slide. […] The nucleus of the HeLa cells was stained with Hoechst 33342 (NucBlue™, Thermo Fisher Scientific). The peptide solution mixture was transferred to the HeLa cells and incubated for 30 min at 37°C before washing three times with PBS. […] For the evaluation of aggregate degradation, the samples were further incubated at 37°C for 3 d and analyzed without any additional washing step. […] The number of aggregates were determined by counting aggregates larger than the threshold 10 µm^2 in an area of 1008 × 1008 µm and repeated in three technical triplicates.

CCCCCCCCCCCCCCCC(=O)N[C@@H](CCCCN)C(=O)N[C@H](C(=O)N[C@H](C(=O)N[C@@H](CO)C(=O)N[C@@H](Cc1ccccc1)C(=O)N[C@@H](CCCCN)C(N)=O)[C@@H](C)CC)[C@@H](C)CC [Pat32, C16-KIISFK-NH2] (Palmitoyl-KIISFK-NH2)
Aggregate size after 30 min incubation (d0): 56 µm^2 | Aggregate size after 3 d incubation (d3): 49 µm^2

C16-ester-SVVVAAAKKK-NH2 (C16-ester N-terminus; C-terminal amide; source 1..10: note = Peptide Amphiphile Pat1; MOD_RES 10: note = lysine amide; note = AMIDATION; LIPID 1: note = O-palmitoyl serine; note = …)
formation of µm-sized PA clusters (Proteostat stained, with HeLa cells): formation of µm-sized PA clusters

C16-thioester-CVVVAAAKKK-NH2 (C16-thioester N-terminus; C-terminal amide; source 1..10: note = Peptide Amphiphile Pat3; MOD_RES 10: note = lysine amide; note = AMIDATION; LIPID 1: note = …; note = S-palmitoyl-cysteine)
formation of µm-sized PA clusters (Proteostat stained, with HeLa cells): formation of µm-sized PA clusters | Aggregate size after 30 min incubation (d0): 22 µm^2 | Aggregate size after 3 d incubation (d3): 10 µm^2

NFYLQVNKINK-NH2 [Pat46]
Aggregate size after 30 min incubation (d0): 61 µm^2 | Aggregate size after 3 d incubation (d3): 44 µm^2

CCCCCCCCCCCCCCCC(=O)N[C@H](C(=O)N[C@H](C(=O)N[C@@H](C)C(=O)N[C@@H](C)C(=O)N[C@@H](Cc1c[nH]cn1)C(=O)N[C@@H](Cc1c[nH]cn1)C(=O)N[C@@H](Cc1c[nH]cn1)C(N)=O)C(C)C)C(C)C [Pat24, C16-VVAAHHH-NH2] (Palmitoyl-VVAAHHH-NH2)
Aggregate size after 30 min incubation (d0): 169 µm^2 | Aggregate size after 3 d incubation (d3): 283 µm^2

CCCCCCCCCCCCCCCC(=O)N[C@@H](C(=O)N[C@@H](C(=O)N[C@@H](C(=O)N[C@H](C)C(=O)N[C@H](C)C(=O)N[C@H](C)C(=O)N[C@H](CCCCN)C(=O)N[C@H](CCCCN)C(=O)N[C@H](CCCCN)C(N)=O)C(C)C)C(C)C)C(C)C [Pat14, C16-vvvaaakkk-NH2] (Palmitoyl-[dV][dV][dV][dA][dA][dA][dK][dK][dK]-NH2)
formation of µm-sized PA clusters (Proteostat stained, with HeLa cells): formation of µm-sized PA clusters | Aggregate size after 30 min incubation (d0): 71 µm^2 | Aggregate size after 3 d incubation (d3): 30 µm^2

CCCCCCCCCCCCCCCC(=O)N[C@H](C(=O)N[C@H](C(=O)N[C@H](C(=O)N[C@@H](C)C(=O)N[C@@H](C)C(=O)N[C@@H](C)C(=O)N[C@@H](CCCCN)C(=O)N[C@@H](CCCCN)C(=O)N[C@@H](CCCCN)C(N)=O)C(C)C)C(C)C)C(C)C [PA1] (Palmitoyl-VVVAAAKKK-NH2)
Aggregate size after 30 min incubation (d0): 28 µm^2 and 36 µm^2

CCCCCCCCCCCCCCCC(=O)N[C@@H](CC(N)=O)C(=O)N[C@@H](Cc1ccccc1)C(=O)N[C@@H](Cc1ccc(O)cc1)C(=O)N[C@@H](CC(C)C)C(=O)N[C@@H](CCC(N)=O)C(=O)N[C@H](C(=O)N[C@@H](CC(N)=O)C(=O)N[C@@H](CCCCN)C(=O)N[C@H](C(=O)N[C@@H](CC(N)=O)C(=O)N[C@@H](CCCCN)C(N)=O)[C@@H](C)CC)C(C)C [Pat27] (Palmitoyl-NFYLQVNKINK-NH2)
Aggregate size after 30 min incubation (d0): 153 µm^2 | Aggregate size after 3 d incubation (d3): 87 µm^2

CCCCCCCCCCCCCCCC(=O)N[C@@H](Cc1c[nH]c2ccccc12)C(=O)N[C@@H](CCC(=O)O)C(=O)N[C@@H](C)C(=O)N[C@@H](CC(C)C)C(=O)N[C@@H](CCCCN)C(=O)N[C@@H](CCCCN)C(N)=O [Pat17, C16-WEALKK-NH2] (Palmitoyl-WEALKK-NH2)
formation of µm-sized PA clusters (Proteostat stained, with HeLa cells): no formation of µm-sized PA clusters

C16-disulfide-CVVVAAAKKK-NH2 (C16-disulfide N-terminus; C-terminal amide; source 1..10: note = Peptide Amphiphile Pat2; MOD_RES 10: note = lysine amide; note = AMIDATION; MOD_RES 1: note = HEX…ULFID; note = hexadecanyl-S-S-cysteine)
formation of µm-sized PA clusters (Proteostat stained, with HeLa cells): no formation of µm-sized PA clusters | formation of µm-sized PA clusters (Proteostat stained, with HeLa cells) (listed as C16-disulfide-CVVVAAAKKK-NH2): not forming large (>10 µm^2) aggregates | formation of µm-sized PA clusters (Proteostat stained, with HeLa cells) (listed as C16-disulfide-CVWAAAKKK): not forming large (>10 µm^2) aggregates

CCCCCCCCCCCCCCCC(=O)N[C@@H](C)C(=O)N[C@H](C(=O)N[C@@H](C)C(=O)N[C@@H](CCCCN)C(=O)N[C@@H](CCCCN)C(=O)N[C@@H](CCCCN)C(N)=O)C(C)C [Pat21, C16-AVAKKK-NH2] (Palmitoyl-AVAKKK-NH2)
Aggregate size after 30 min incubation (d0): 39 µm^2 | Aggregate size after 3 d incubation (d3): 47 µm^2

CCCCCCCCC(=O)N[C@H](C(=O)N[C@H](C(=O)N[C@H](C(=O)N[C@@H](C)C(=O)N[C@@H](C)C(=O)N[C@@H](C)C(=O)N[C@@H](CCCCN)C(=O)N[C@@H](CCCCN)C(=O)N[C@@H](CCCCN)C(N)=O)C(C)C)C(C)C)C(C)C [Pat8] (Nonanoyl-VVVAAAKKK-NH2)
formation of µm-sized PA clusters (Proteostat stained, with HeLa cells): formation of µm-sized PA clusters | Aggregate size after 30 min incubation (d0): 32 µm^2 | Aggregate size after 3 d incubation (d3): 50 µm^2

CCCCCCCCCCCCCCCC(=O)N[C@@H](CC(C)C)C(=O)N[C@@H](CC(C)C)C(=O)N[C@@H](CC(C)C)C(=O)N[C@@H](CCCCN)C(=O)N[C@@H](CCCCN)C(N)=O [Pat23, C16-LLLKK-NH2] (Palmitoyl-LLLKK-NH2)
formation of µm-sized PA clusters (Proteostat stained, with HeLa cells): formation of µm-sized PA clusters | Aggregate size after 30 min incubation (d0): 71 µm^2 | Aggregate size after 3 d incubation (d3): 60 µm^2

CCCCCCCCCCCCCCCC(=O)N[C@@H](C)C(=O)N[C@@H](CCCCN)C(=O)N[C@@H](C)C(=O)N[C@H](C(=O)NCC(=O)N[C@@H](CCCCN)C(N)=O)C(C)C [Pat31, C16-AKAVGK-NH2] (Palmitoyl-AKAVGK-NH2)
formation of µm-sized PA clusters (Proteostat stained, with HeLa cells): formation of µm-sized PA clusters | Aggregate size after 30 min incubation (d0): 104 µm^2 | Aggregate size after 3 d incubation (d3): 38 µm^2

CCCCCCCCCCCCCCCC(=O)N[C@@H](C)C(=O)N[C@@H](CCC(N)=O)C(=O)N[C@@H](C)C(=O)N[C@@H](CCCCN)C(=O)N[C@@H](C)C(=O)N[C@@H](CCCCN)C(N)=O [Pat16, C16-AQAKAK-NH2] (Palmitoyl-AQAKAK-NH2)
formation of µm-sized PA clusters (Proteostat stained, with HeLa cells): formation of µm-sized PA clusters | Aggregate size after 30 min incubation (d0): 25 µm^2 | Aggregate size after 3 d incubation (d3): 28 µm^2

CC(C)[C@H](NC(=O)OCC1c2ccccc2-c2ccccc21)C(=O)N[C@H](C(=O)N[C@H](C(=O)N[C@@H](C)C(=O)N[C@@H](C)C(=O)N[C@@H](C)C(=O)N[C@@H](CCCCN)C(=O)N[C@@H](CCCCN)C(=O)N[C@@H](CCCCN)C(N)=O)C(C)C)C(C)C [Pat12] (Fmoc-VVVAAAKKK-NH2)
formation of µm-sized PA clusters (Proteostat stained, with HeLa cells): formation of µm-sized PA clusters | Aggregate size after 30 min incubation (d0): 111 µm^2 | Aggregate size after 3 d incubation (d3): 65 µm^2

CCCCCCCCCCCCCCCC(=O)N[C@@H](CC(C)C)C(=O)N[C@@H](CC(N)=O)C(=O)NCC(=O)NCC(=O)N[C@H](C(=O)N[C@@H](CCCCN)C(=O)N[C@@H](CCCCN)C(N)=O)C(C)C [Pat19, C16-LNGGVKK-NH2] (Palmitoyl-LNGGVKK-NH2)
formation of µm-sized PA clusters (Proteostat stained, with HeLa cells): formation of µm-sized PA clusters | Aggregate size after 30 min incubation (d0): 76 µm^2 | Aggregate size after 3 d incubation (d3): 40 µm^2

CCCCCCCCCCCCCCCC(=O)N[C@@H](CCCCN)C(=O)N[C@@H](Cc1ccc(O)cc1)C(=O)N[C@H](C(=O)N[C@@H](Cc1c[nH]cn1)C(=O)N[C@@H](CCC(N)=O)C(=O)N[C@@H](CC(N)=O)C(=O)N[C@@H](Cc1ccc(O)cc1)C(=O)N[C@H](C(=O)N[C@@H](CCCCN)C(=O)N[C@@H](C)C(=O)N[C@@H](CC(C)C)C(=O)N[C@@H](C)C(=O)NCC(=O)N[C@@H](CCCCN)C(=O)N[C@@H](CC(C)C)C(=O)N[C@H](C(N)=O)C(C)C)[C@@H](C)O)[C@@H](C)CC [Pat26] (Palmitoyl-KYIHQNYTKALAGKLV-NH2)
Aggregate size after 30 min incubation (d0): 76 µm^2 | Aggregate size after 3 d incubation (d3): 80 µm^2

CC/C=C\C/C=C\C/C=C\C/C=C\C/C=C\CCCC(=O)N[C@H](C(=O)N[C@H](C(=O)N[C@H](C(=O)N[C@@H](C)C(=O)N[C@@H](C)C(=O)N[C@@H](C)C(=O)N[C@@H](CCCCN)C(=O)N[C@@H](CCCCN)C(=O)N[C@@H](CCCCN)C(N)=O)C(C)C)C(C)C)C(C)C [Pat10] (X1-VVVAAAKKK-NH2)
average size of aggregates: 6 µm^2 | formation of µm-sized PA clusters (Proteostat stained, with HeLa cells): formation of µm-sized PA clusters | Aggregate size after 30 min incubation (d0): 21 µm^2 | Aggregate size after 3 d incubation (d3): 17 µm^2

CCCCCCCCCCCCCCCC(=O)N[C@H](C(=O)N[C@H](C(=O)N[C@@H](CCC(N)=O)C(=O)N[C@@H](CCCCN)C(=O)N[C@H](C(=O)N[C@@H](CCCCN)C(N)=O)[C@@H](C)CC)[C@@H](C)CC)[C@@H](C)CC [Pat15, C16-IIQKIK-NH2] (Palmitoyl-IIQKIK-NH2)
formation of µm-sized PA clusters (Proteostat stained, with HeLa cells): formation of µm-sized PA clusters | Aggregate size after 30 min incubation (d0): 41 µm^2 | Aggregate size after 3 d incubation (d3): 23 µm^2

Source: patent EP4458977A1 (Max-Planck-Gesellschaft zur Förderung der Wissenschaften …, priority 2023, dated 2024)
